From PubChem BioAssay AID1794845 (National Center for Advancing Translational Sciences (NCATS), 2023)
Fewer than 10 of roughly 6,900 compounds were called active. Calls follow the shape of the dose curve; as a rule, active = well fitted curve in the direction sought with a large enough effect; inconclusive = small, poorly fitted or top-dose-only effect, or another doubt; inactive = no such curve, though single readings can be large or run the other way. Some of the results follow.

Amino acid sequences for entries named in this document (tags omitted). A change or cut given only in a name is not applied to a line headed by its entry.
UniProt C7C422: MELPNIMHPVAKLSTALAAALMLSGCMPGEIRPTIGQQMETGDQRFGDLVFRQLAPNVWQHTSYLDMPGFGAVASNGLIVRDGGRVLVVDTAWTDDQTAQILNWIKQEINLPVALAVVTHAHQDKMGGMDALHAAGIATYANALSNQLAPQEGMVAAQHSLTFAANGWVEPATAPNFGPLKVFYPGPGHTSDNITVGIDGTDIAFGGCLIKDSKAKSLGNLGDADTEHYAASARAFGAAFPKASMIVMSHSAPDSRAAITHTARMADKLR

molecular target: Metallo-beta-lactamase type 2 (Klebsiella pneumoniae) (UniProt C7C422); assay: qHTS to identify inhibitors of the New Delhi Metallo-beta-lactamase (NDM): primary screen against the NCATS Gemini Collection; conditions: NDM-1 enzyme, meropenem hydrolysis, absorbance 300 nm; at 38.4 µM (top of the series) unless noted; also: % of control where 0% means no effect
Summary of the method: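 NDM-1 at 2 nM final in 50 mM HEPES pH 7.0, 1 uM ZnSO4, 0.01% Tween20, preincubated >30 min with compound. Meropenem 50 uM final added; absorbance at 300 nm after 30 min.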

Activity % (negative = inhibition), inactive:
Cc1ccc(-c2nc(NCc3ccncc3)ncc2C(=O)O)cc1 9.55%
N#Cc1ccc(OCC2CN(Cc3cccc(C(F)(F)F)c3)C(=O)c3c(ccnc3-c3ccc(OCC(=O)O)cc3)O2)cc1 (stereo not drawn) 18.7%
Cc1nn(C)cc1C(=O)NCCn1c(C)cnc1C1CC1 -10.1%
Cc1ccc2cc(CN3CCN(CC(N)=O)CC3)c(-c3cccs3)nc2c1 0.581%
CCN(CC)C(=O)[C@@H](C)C1CC[C@@]2(C)CC[C@H](NC(=O)c3ccncc3)[C@@H](C)[C@@H]2[C@H]1O (stereo partly drawn) 13.5% [at 57.5 µM]
COc1ccc(C(=O)N2CCC[C@H]2c2nc(-c3ccccc3)no2)cc1 5.95%
Cn1nccc1C(=O)N1CCCCCNC(=O)[C@@H]2CCC[C@@H]21 -0.422%
O=C(NCC1CCOCC1)c1ccoc1 2.58%
Cc1nc([C@@H]2CN(Cc3ccc(C(F)(F)F)cc3)C[C@H]2C(N)=O)n[nH]1 7.17%
COc1ccc(-c2cc3c(cn2)CN(CCc2ccccc2)CCN3)cc1OC 27.5% [at 57.5 µM]
CS(=O)(=O)N1CCOc2ccc(CCC(=O)N3CCC(C(N)=O)CC3)cc2C1 -2.74%
O=C(Nc1ccc(Cl)cc1Cl)c1cnn2ncccc12 38.6% [at 57.5 µM]
COCC(=O)N[C@H]1CC[C@]2(C)CC[C@@H](C(C)C(=O)NC3CC3)[C@H](O)[C@H]2[C@@H]1C (stereo partly drawn) 1.21% [at 57.5 µM]
CCC1Oc2ccc(NC(=O)Cc3cccs3)cc2CN(C2CCCc3ccccc32)C1=O (stereo not drawn) -5.31%
COc1ccc(C(=O)NC[C@H]2O[C@H](Cc3cc(CN4CCOCC4)on3)CC[C@@H]2O)cc1 7.81%
CCOc1ccccc1-c1noc(-c2nc(C)no2)n1 -1.26%
Clc1ccc(-c2cnc([C@@H]3COCCN3Cc3ccccc3)[nH]2)s1 4.54% [at 57.5 µM]
O=C1NCC2(CCCN(C(=O)CCc3nc4ccccc4[nH]c3=O)C2)O1 (stereo not drawn) 6.27%
O=c1ncn(CC2CC2)c2ccc(N3CCC(c4ccccc4)CC3)nc12 24.7% [at 57.5 µM]
Cc1cn2nc(C(=O)Nc3ccc4c(c3)OCCO4)cc2c(N(C)Cc2ccccc2)n1 25.9%
CNC(=O)c1cn2c(n1)CN(C(=O)OCc1ccccc1)CC2 2.52%
Cc1cc(Cl)cc(Cl)c1CNCC1(O)CCCNC1 (stereo not drawn) -2.6%
COc1ccccc1CN[C@H]1CC(C)(C)[C@@H]2C[C@@](C)(O)CC[C@]12CCC(=O)NCCN1CCOCC1 -9.76%
CCOc1cccc(CN2C[C@@H](Oc3ccccc3)C[C@@H]2C(=O)NC)c1 -0.657%
O=C(CN1CCC2(CC1)NC(=O)CC2C(=O)O)NCc1ccccn1 (stereo not drawn) 14.2%
Cc1ccc([C@H]2C[C@@H](O)[C@@H](O)[C@@H]2NS(C)(=O)=O)cc1 0.842% [at 77.1 µM]
O=C(NC1CCCN(c2cc(N3CCCC3)ncn2)C1)c1ccco1 (stereo not drawn) 16.8%
CC(C)N1CC(C(=O)N2CCC(c3ccccc3)CC2)NC1=O (stereo not drawn) 8.63% [at 57.5 µM]
O=C(NCc1cccnc1)C1CCC(=O)N1C1CCN(C(=O)Cc2ccccc2F)CC1 (stereo not drawn) 0.0397%
N#Cc1ccc(S(=O)(=O)N2CCc3c(nc(-c4ccc(F)cc4)[nH]c3=O)C2)cc1 0.248%
O=C1NCCC[C@@H]1NC(=O)[C@H]1CN(C(=O)C2CCNCC2)CCN1C(=O)c1cccs1 10.3%
O=C(COc1ccc(F)cc1)N1CCOc2ccc(N3CCOCC3)cc2C1 7.34%
COc1cccc(CCC(=O)NCc2nnc3c(-c4nc(C)no4)cccn23)c1 20.2%
CN(Cc1ccccc1)Cc1cn([C@H]2CO[C@H]3[C@@H]2OC[C@@H]3NC(=O)CCC(=O)O)nn1 9.24% [at 57.5 µM]
COc1ccc(-c2nc(C)nc3c2CCN([S+](=O)([O-])c2cccs2)CC3)cc1 -0.0245%
Cc1ccc(O[C@H]2CCOC[C@H]2NC(=O)CCc2c(C)noc2C)cn1 -0.427%
COC(=O)CCC(=O)N1CCOC(CCCC(C)C)C1 (stereo not drawn) -5.66%
Cc1nnc2ccc(NC3CCCC3)nn12 1.92%
COc1cccc(C(=O)N2CCC(N3C(=O)c4c(c(C)nn4-c4ccccc4)C3C3CC3)C2)c1 (stereo not drawn) 21.6%
C[C@@H]1CN(C2(C(=O)NCc3n[nH]c4c3CCC4)Cc3ccccc3C2)C[C@H](C)O1 0.0426%
Cc1cccc(NC(=O)N2CCCCC2c2nc(-c3cnccn3)n[nH]2)c1 (stereo not drawn) 23.1%
CC1=NOC2(CCN(Cc3ccc(Cl)cc3)CC2)C1 5.13% [at 57.5 µM]
CC(C)CCN1CCNC(=O)C1CC(=O)NCc1ccc(O)cc1O (stereo not drawn) 8.76%
O=C(Nc1ccccc1)N1CCC(OCc2noc(C3CCCO3)n2)CC1 (stereo not drawn) -2.88%
CN1C[C@H]2CN(C(=O)c3ccc(C(F)(F)F)cc3)CCN2C1=O 0.274% [at 57.5 µM]
Cc1cccc(C(=O)N2CCN(c3cc(C(F)(F)F)nc(C)n3)CC2)c1 13.7%
CCCS(=O)(=O)N1CCCC1C(=O)Nc1ccccc1-c1ccc(OC)cc1 (stereo not drawn) 0.323%
O=C(CN1CCCC1)N[C@H]1CC[C@H](Nc2nccc(-c3cccnc3)n2)C1 6.07%
CN1CCCC(c2nc(CCOCC3CCCC3)no2)C1 (stereo not drawn) 11.1%
Cc1cnc(C2CCOCC2)n1CC1CCN(C2CCCCCC2)CC1 -4.81%
CCn1ccc(C(=O)N2CCC(N3C[C@H](O)C[C@H]3C(=O)NCc3cccnc3)CC2)n1 1.97%
O=C(Cc1ccccc1)NCC1CN(Cc2ccncc2Cl)CC12CN(c1ccccc1)C2 (stereo not drawn) -0.935%
CCCCCC(=O)Nc1ccc([C@H]2OCC(=O)N(Cc3nccn3C)[C@@H]2CO)cc1 -0.217% [at 57.5 µM]
O=C(CC1CCOCC1)N1CCN(Cc2ccc(F)cc2F)CC1 -7.49%
Cc1ncc2n1C(=O)N(C1CCN(CC3CC3)CC1)C2 1.75% [at 57.5 µM]
Cc1cc(C)n(CC(=O)N2CCCC2c2nc(CCOCC3CCOCC3)no2)n1 (stereo not drawn) -0.315%
COc1ccccc1N1CCN([C@@H]2[C@H](O)[C@H](CO)O[C@@H]2CNC(=O)c2ccccc2)CC1 2.69%
COc1cccc(-c2nc3ccc(-c4ccc5c(c4)OCO5)cc3o2)c1OC 15.7%
CCOC(=O)c1ccc(CNC(=O)c2cn(CCCc3ccccc3)nn2)o1 2.67%
COc1ccc(C(=O)N2CCC3(CC2)CCC(O)(CN(C)C)CC3)cc1OC -9.83%
NC(=O)[C@@H](Cc1c[nH]c2ccccc12)NC(=O)[C@@H]1CN(S(=O)(=O)c2ccccc2)CCN1C(=O)C1CCNCC1 -3.16%
Cc1cn2nc(C(=O)Nc3cccc(F)c3C)cc2c(N2CCCC2)n1 11.7%
O=C(CC1CCCCC1)N1CCCC1c1nncn1Cc1ccncc1 (stereo not drawn) -5.35%
COCCN1C(=O)C(CC(=O)O)=C2CCCCC21 (stereo not drawn) 2.87%
CN(Cc1ccccc1C(F)(F)F)S(C)(=O)=O 4.87% [at 57.5 µM]
CC(=O)N1CCC(C2CCN(C(C)=O)C2)CC1 (stereo not drawn) -0.839%
CCOc1ccccc1CN1CCC(Cc2nc(-c3cccnc3)n[nH]2)C1 (stereo not drawn) -2.11%
CCn1ccc(C(=O)N2[C@@H]3CC[C@H]2CC(NC(=O)c2ccc(F)cc2)C3)n1 (stereo partly drawn) 34%
CC(=O)NC1(C)CN(Cc2ccc(-c3cccc(F)c3)s2)C1 29.8% [at 57.5 µM]
CC(C)NC(=O)N[C@H]1C[C@H]2C(=O)NC[C@@H](CCC(=O)N3CCN(c4ccccn4)CC3)N2C1 0.201%
Cc1c(Cl)cccc1NC(=O)N1CCCC1c1nncn1-c1ccccc1 (stereo not drawn) 12.2%
O=C(NC1CCC1)c1ccc2nccn2c1 18.1% [at 77.1 µM]
CS(=O)(=O)c1ccc(CC(=O)N[C@H](c2ccccn2)C2CC(O)C2)cc1 (stereo partly drawn) 2.03%
O=C(C1CCCC1)N1CC2(CCCN(Cc3ccccn3)C2)Cc2ccccc21 (stereo not drawn) 25.1%
COCCOc1ncccc1-c1noc([C@@H]2CCCN2Cc2ccc(OC)cc2O)n1 6.12% [at 57.5 µM]
CN1CCC(N[C@@H]2CCC[C@@H](C(=O)NC3CC3)CC(=O)N(C)C2)CC1 8.57% [at 57.5 µM]
O=C(c1ccccc1)N1CC2(CCCN2Cc2cccnc2)Cc2ccccc21 (stereo not drawn) 5.12%
CC[C@H]1CN(C(=O)NC(C)C)CC[C@H]1CC(=O)N(C)CCC#N 4.13% [at 57.5 µM]
Cc1nnn2c(C(=O)NCc3ccc(Cl)cc3)cccc12 -3.28% [at 57.5 µM]
O=C(O)C1=NOC2CN([S+](=O)([O-])c3cc(C(F)(F)F)cc(C(F)(F)F)c3)CC12 (stereo not drawn) -3.44%
Cc1noc(C)c1CCCNC(=O)c1ccc(NC[C@H]2C[C@H]3C=C[C@H]2C32CC2)nc1 16.1%
CN(Cc1ccc(F)cc1)C1CCCc2ccccc21 (stereo not drawn) -2.61% [at 57.5 µM]
Cc1ccc(NC(=O)C2CCc3nnc(C4CCN(C(=O)NC(C)(C)C)CC4)n32)cc1 (stereo not drawn) 4.92%

Grouped by structure: the compounds so far containing a Cl atom
Activity % (negative = inhibition), inactive:
O=C(Nc1ccc(Cl)cc1Cl)c1cnn2ncccc12 38.6% [at 57.5 µM]
Clc1ccc(-c2cnc([C@@H]3COCCN3Cc3ccccc3)[nH]2)s1 4.54% [at 57.5 µM]
Cc1cc(Cl)cc(Cl)c1CNCC1(O)CCCNC1 (stereo not drawn) -2.6%
CC1=NOC2(CCN(Cc3ccc(Cl)cc3)CC2)C1 5.13% [at 57.5 µM]
O=C(Cc1ccccc1)NCC1CN(Cc2ccncc2Cl)CC12CN(c1ccccc1)C2 (stereo not drawn) -0.935%
Cc1c(Cl)cccc1NC(=O)N1CCCC1c1nncn1-c1ccccc1 (stereo not drawn) 12.2%
Cc1nnn2c(C(=O)NCc3ccc(Cl)cc3)cccc12 -3.28% [at 57.5 µM]
